Laboratory results taken from PubChem BioAssay AID493014 (National Center for Advancing Translational Sciences (NCATS), 2011).
The other results are listed elsewhere or left out. Further columns of the screen follow, without active or inactive calls. Most of these compounds were active or inconclusive in the main read-out, so they are no random draw. The note in brackets gives the kind of curve behind each potency; many fits are weak.

Experiment: qHTS Assay to Find Inhibitors of Chronic Active B-Cell Receptor Signaling
Conditions: ABC-DLBCL IkBa-CBG/CBR reporter, luminescence ratio (green luciferase fused to IkBa over red control in TMD8 lymphoma cells), 4 h
Summary of the method: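 Concentration-response series (up to 46 uM) were applied to TMD8 dual-reporter cells for 4 h at 37C with doxycycline. Green/red ratio, after filter-overlap correction, defined %Activity; red signal alone was normalised to basal cells and zero luminescence.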

[1] = measured here: CBR red luminescence, cell number
[2] = measured here: IkBa-CBG green luminescence

Row | SMILES | AC50 [1] | AC50 [2]
1 | O=C(Cc1c[nH]c2ccccc12)N1CCc2ccccc21 | 1.46 µM [falling, partial curve, poor fit] | 
2 | Brc1ccccc1OCCCCCN1CCOCC1 | 2.51 µM [rising, partial curve, poor fit] | 
3 | Cc1ccc(C)c(NC(=O)CSc2nnc(-c3ccncc3)o2)c1 | 11.2 µM [falling, partial curve, poor fit] | 
4 | COc1ccc(CCNc2nnc(Sc3nnnn3-c3ccccc3)s2)cc1OC | 14.6 µM [falling, partial curve] | 8.2 µM [falling, partial curve]
5 | Cc1cc(C(=O)c2cnc(/N=C/N(C)C)s2)c(F)cc1Cl | 1.26 µM [falling, single point] | 
6 | CC(C)CN(C(=O)c1ccco1)c1nc2ccccc2s1 | 35.5 µM [rising, single point] | 
7 | O=[N+]([O-])c1ccc(N2CCN(C(=S)c3cccc([N+](=O)[O-])c3)CC2)cc1 | 12.6 µM [rising, single point] | 
8 | CCn1c(SCC(=O)Nc2nccc(C)n2)nc2ccccc21 | 35.5 µM [falling, single point] | 
9 | Cc1cc(N2CCN(c3ccc(F)cc3)CC2)n2ncnc2n1 | 15.8 µM [falling, single point] | 
10 | Oc1ccc(-c2csc(-c3ccccc3)n2)cc1O | 2.51 µM [rising, partial curve] | 
11 | Cc1ccccc1OCC(=O)Nc1sc2c(c1C#N)CCC2 | 13 µM [rising, partial curve] | 
12 | COc1ccc(CCCC(=O)O)c(C)c1 | 3.16 µM [falling, partial curve, poor fit] | 
13 | CN1C(=O)NC(c2ccccc2)(C(F)(F)F)S/C1=C(/C#N)c1nnc(N2CCOCC2)n1-c1ccccc1 (centres undefined) | 13 µM [falling, partial curve] | 20.6 µM [rising, partial curve, poor fit]
14 | COc1ccc(CN2CCCCCC2)c(C)c1C | 29.1 µM [rising, single point] | 
15 | O=c1oc2cc(OCc3ccc(F)cc3F)ccc2cc1-c1ccc2ccccc2n1 | 29.1 µM [rising, partial curve, poor fit] | 
16 | C/C(=N\Nc1ncc(Cl)cc1Cl)c1ccc(OC(F)F)cc1 | 1.64 µM [rising, full curve, poor fit] | 29.1 µM [falling, single point]
17 | CCc1cc2c(SCC(=O)Nc3ccc(NC(C)=O)cc3)ncnc2s1 | 29.1 µM [rising, single point] | 23.1 µM [falling, partial curve, poor fit]
18 | COc1ccccc1-c1cn[nH]c(=S)n1 | 10.3 µM [falling, partial curve] | 
19 | Cc1ccc2sc(N(CCCN(C)C)C(=O)c3ccc(S(=O)(=O)N(C)C4CCCCC4)cc3)nc2c1C | 29.1 µM [falling, single point] | 
20 | Cc1ccccc1Nc1nc(N)nc(COC(=O)c2cccc(S(=O)(=O)N(C)C)c2)n1 | 20.6 µM [rising, partial curve] | 16.4 µM [falling, partial curve, poor fit]

Row | SMILES | AC50 [1] | AC50 [2]
21 | CN(C)CCCn1c(=O)n(Cc2ccccc2)c(=O)c2c3c(sc21)CCCCC3 | 8.91 µM [falling, partial curve, poor fit] | 
22 | COc1ccc(Nc2ccncc2[N+](=O)[O-])cc1 | 2.82 µM [falling, full curve, poor fit] | 
23 | O=C(Nc1ccc([N+](=O)[O-])cc1)C1CC12CCC2 (centres undefined) | 35.5 µM [falling, single point] | 
24 | COC(=O)c1sccc1NC(=O)Nc1ccc(C)c(C)c1 | 0.794 µM [falling, full curve] | 
25 | Cc1ccnc(SCc2cc(=O)c(OC(=O)c3cc([N+](=O)[O-])ccc3Cl)co2)n1 | 29.1 µM [rising, single point] | 
26 | COc1ccc2oc(C(=O)NC3CCCCC3)c(C)c2c1 | 12.6 µM [falling, partial curve] | 
27 | CCc1ccc2oc(-c3cc(N)ccc3Cl)nc2c1 | 16.4 µM [falling, partial curve, poor fit] | 16.4 µM [falling, partial curve, poor fit]
28 | C=CCn1c(SCC(=O)NCCOC)nc2scc(-c3ccco3)c2c1=O | 3.55 µM [falling, single point] | 
29 | O=C(CCc1ccccc1Cl)Nc1cccc(S(=O)(=O)N2CCCC2)c1 | 31.6 µM [falling, single point] | 
30 | COC/C=C/C1=CC2=CC(=O)C(C)(OC(=O)c3cnc4ccccc4n3)C(=O)C2=CN1C(CO)CO (centres undefined) | 12.6 µM [rising, partial curve, poor fit] | 
31 | Cc1cc(C)c2c3c(sc2n1)C(=O)N(C)CC(=O)N3 | 25.1 µM [rising, single point] | 
32 | COC(=O)c1nn(-c2ccccc2)c(Sc2ccc(Cl)cc2)c1/C=N/O | 22.4 µM [falling, single point] | 
33 | Cc1ccc(-c2nc(Nc3ccccc3)n[nH]2)cc1 | 2.91 µM [falling, partial curve, poor fit] | 
34 | COc1cc(CO)cc(Br)c1OCc1cccnc1 | 11.2 µM [rising, partial curve, poor fit] | 
35 | CC1CCCCC1NC(=O)COc1ccccc1C#N (centres undefined) | 29.1 µM [rising, single point] | 
36 | COc1ccc2[nH]c3c(NCc4ccco4)ncnc3c2c1 | 3.16 µM [rising, partial curve, poor fit] | 
37 | Cc1cc(N2CCN(C(=O)c3ccco3)CC2)n2ncc(-c3ccccc3)c2n1 | 17.8 µM [falling, single point] | 
38 | COc1ccc(CN(CCC(c2ccc(F)cc2)C2CCOC(C)(C)C2)C(=O)c2ccco2)cc1 (centres undefined) | 29.1 µM [falling, single point] | 25.9 µM [rising, partial curve, poor fit]
39 | CCOC(=O)c1sc(Nc2nc3c(OC)cccc3s2)cc1C | 7.31 µM [falling, partial curve, poor fit] | 
40 | Cc1cc(C)cc(OCC(=O)Nc2ccccc2C(=O)NCc2ccco2)c1 | 23.1 µM [falling, single point] | 

Row | SMILES | AC50 [1] | AC50 [2]
41 | Cc1ccc(-c2noc(CCC(=O)Nc3ccccc3C)n2)cc1 | 20 µM [rising, partial curve, poor fit] | 
42 | N#CCCn1cc(/C=N/O)c(-c2ccc(-c3ccccc3)cc2)n1 | 3.16 µM [rising, partial curve, poor fit] | 
43 | CCN(CC)c1ccc2cc(-c3nc4ccccc4n3C)c(=O)oc2c1 | 8.91 µM [rising, partial curve] | 2.24 µM [falling, full curve]
44 | Cc1cc(C(=O)COc2ccc(C#N)cc2)c(C)n1C1CC1 | 18.4 µM [rising, partial curve] | 
45 | NC(=O)C1CCN(CC(=O)Nc2ccccc2Sc2ccc(Cl)cc2)CC1 | 29.1 µM [falling, single point] | 
46 | O=C(CSc1ncccn1)N1CCN(C(c2ccccc2)c2ccccc2)CC1 | 0.461 µM [falling, partial curve, poor fit] | 
47 | COc1ccc(S(=O)(=O)NCCc2nnc3ccc(SCC(=O)Nc4cc(C)on4)nn23)cc1 | 7.94 µM [rising, partial curve, poor fit] | 
48 | CS(=O)(=O)N1N=C(c2ccccc2)CC1c1ccc2c(c1)OCO2 (centres undefined) | 9.2 µM [rising, partial curve] | 
49 | Cc1nc(SCC(=O)NCC2CCCO2)c2cc(-c3ccccc3)sc2n1 (centres undefined) | 1.3 µM [rising, full curve, poor fit] | 
50 | O=C(N/N=C/c1ccncc1)c1ccc(COc2cccc3cccnc23)cc1 | 6.31 µM [falling, partial curve, poor fit] | 
51 | Cc1ccc(S(=O)(=O)/C(C#N)=C/c2c(N3CC(C)OC(C)C3)nc3ccccn3c2=O)cc1 (centres undefined) | 8.91 µM [falling, partial curve, poor fit] | 11.2 µM [rising, partial curve, poor fit]
52 | COc1ccc(S(=O)(=O)NCC(c2ccco2)S(=O)(=O)c2ccc(C)cc2)cc1C (centres undefined) | 20 µM [falling, partial curve, poor fit] | 
53 | Cc1ccc(S(=O)(=O)CCc2nc3ccccc3s2)cc1C | 16.4 µM [rising, partial curve, poor fit] | 
54 | CCOc1cc(NC(=O)Nc2ccc(F)cc2)c(OCC)cc1NC(=O)CC | 35.5 µM [rising, partial curve, poor fit] | 
55 | Cc1ccc2c(c1)-c1c(cnn1CC(=O)Nc1ccccc1N1CCN(C)CC1)CO2 | 16.4 µM [falling, partial curve, poor fit] | 
56 | COc1ccc(NC(=O)c2sc(SCc3ccccc3)nc2N)cc1 | 23.1 µM [falling, partial curve, poor fit] | 
57 | CCC(Oc1ccccc1)C(=O)Nc1cc(C(F)(F)F)ccc1N1CCOCC1 (centres undefined) | 3.66 µM [rising, single point] | 
58 | CC(C)OCCCN1C=C2C(=O)C(C)(OC(=O)CCc3ccccc3)C(=O)C=C2C=C1c1ccc(C#N)cc1 (centres undefined) | 3.16 µM [falling, single point] | 
59 | O=C(NC1CCSc2ccccc21)c1ccccc1Br (centres undefined) | 11.2 µM [falling, single point] | 
60 | Cc1ccc(NC(=O)CNS(=O)(=O)c2ccc(F)cc2)cc1C | 1.12 µM [rising, partial curve, poor fit] | 

Rewritten comma-delimited: entries from further up.
Row,SMILES,AC50 [1],AC50 [2]
43,CCN(CC)c1ccc2cc(-c3nc4ccccc4n3C)c(=O)oc2c1,"8.91 µM [rising, partial curve]","2.24 µM [falling, full curve]"
44,Cc1cc(C(=O)COc2ccc(C#N)cc2)c(C)n1C1CC1,"18.4 µM [rising, partial curve]",
45,NC(=O)C1CCN(CC(=O)Nc2ccccc2Sc2ccc(Cl)cc2)CC1,"29.1 µM [falling, single point]",
46,O=C(CSc1ncccn1)N1CCN(C(c2ccccc2)c2ccccc2)CC1,"0.461 µM [falling, partial curve, poor fit]",
47,COc1ccc(S(=O)(=O)NCCc2nnc3ccc(SCC(=O)Nc4cc(C)on4)nn23)cc1,"7.94 µM [rising, partial curve, poor fit]",
